Data reported in PMC12697865, “ZFPL1 Promotes Colorectal Cancer Progression by Stabilizing ASS1 to Drive the Urea Cycle and M2 Macrophage‐Mediated Metastatic Colonization” (Advanced Science, 2025).

Chains of the proteins cited; added tags and fusions are not shown. Lines headed by an entry give the natural chain unless they say otherwise; changes in a name come on top.
UniProt P00966: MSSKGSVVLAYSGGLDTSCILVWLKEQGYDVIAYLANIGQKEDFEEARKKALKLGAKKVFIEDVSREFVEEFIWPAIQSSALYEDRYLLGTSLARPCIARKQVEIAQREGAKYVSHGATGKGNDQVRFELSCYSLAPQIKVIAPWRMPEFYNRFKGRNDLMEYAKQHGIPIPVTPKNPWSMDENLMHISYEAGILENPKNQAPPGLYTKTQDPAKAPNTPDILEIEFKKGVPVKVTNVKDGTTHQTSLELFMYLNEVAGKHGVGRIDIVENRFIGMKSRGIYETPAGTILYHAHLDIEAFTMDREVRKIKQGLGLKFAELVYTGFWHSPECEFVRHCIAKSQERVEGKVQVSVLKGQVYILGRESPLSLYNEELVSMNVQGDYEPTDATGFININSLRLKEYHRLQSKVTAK

Legend:
[1] = molecular target: T1, Fluorescently labelled ZFPL1 (MST) (human) (UniProt O95159); experiment: MST; fluorescently labelled ZFPL1 mixed with varying concentrations of ASS1; Monolith NT.115; buffer pH 7.4, 1 mM MgCl2, 3 mM KCl, 150 mM NaCl, 0.05% Tween-20; also with Salvianolic acid B added; both purified
T1 sequence (chain, fluorescent label (dye and site not stated)): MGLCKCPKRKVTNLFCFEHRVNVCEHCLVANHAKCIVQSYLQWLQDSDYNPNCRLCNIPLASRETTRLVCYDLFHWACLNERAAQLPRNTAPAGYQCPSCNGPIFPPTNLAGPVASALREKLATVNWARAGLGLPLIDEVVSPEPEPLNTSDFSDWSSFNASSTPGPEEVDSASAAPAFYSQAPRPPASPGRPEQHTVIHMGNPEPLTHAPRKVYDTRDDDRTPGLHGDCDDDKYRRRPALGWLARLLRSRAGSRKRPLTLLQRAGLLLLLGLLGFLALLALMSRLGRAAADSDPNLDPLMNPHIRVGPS

[2] = molecular target: T2, Flag-tagged ZFPL1-WT (zinc finger protein-like 1) (human) (UniProt O95159); experiment: co-IP; HEK293T cells transfected with His-tagged ASS1 (WT or Mut) and Flag-tagged ZFPL1 (WT or Mut); IP kit, immunoblot
T2 sequence: T1 sequence (chain, fluorescent label (dye and site not stated))

binding [1]	binding [2]	Substance
binds		ASS1-K57^mut (MST) (from UniProt P00966)
	no binding	His-tagged ASS1-Mut (mutated in the predicted ZFPL1-interaction region) (from UniProt P00966)

These are yes or no findings as the source states them, for the method shown. For some assays here: Binding can be weak; no strength is given. For some assays here: Binding seen in cells or lysates may run through a third protein. For some assays here: Sequences can lack the tags named with a protein.
